Measured values from the supplement of paper PMC12819154, “High-throughput peptide-centric local stability assay extends protein–ligand identification to membrane proteins, tissues and bacteria” (Nature Structural & Molecular Biology, 2025).
The other results are listed elsewhere or left out. Most values lie at the level of the controls, where differences are scatter.

The chains behind the UniProt entries cited, without tags or fusion partners. Where a name states a change or a piece, a line headed by the entry shows the natural chain unless it says otherwise.
UniProt P25397: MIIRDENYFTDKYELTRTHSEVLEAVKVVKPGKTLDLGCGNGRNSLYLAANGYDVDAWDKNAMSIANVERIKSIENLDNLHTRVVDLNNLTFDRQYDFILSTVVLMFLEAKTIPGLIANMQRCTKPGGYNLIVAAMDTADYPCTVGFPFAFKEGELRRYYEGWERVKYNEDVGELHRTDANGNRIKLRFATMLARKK
UniProt P33025: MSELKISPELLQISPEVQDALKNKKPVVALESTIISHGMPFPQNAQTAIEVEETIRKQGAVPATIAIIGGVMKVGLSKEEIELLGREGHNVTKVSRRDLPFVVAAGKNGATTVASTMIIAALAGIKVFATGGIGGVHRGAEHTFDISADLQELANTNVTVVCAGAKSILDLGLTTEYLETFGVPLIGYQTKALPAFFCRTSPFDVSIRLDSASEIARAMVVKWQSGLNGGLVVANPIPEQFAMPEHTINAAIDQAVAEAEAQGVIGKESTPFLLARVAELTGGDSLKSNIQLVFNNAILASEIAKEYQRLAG
UniProt P33234: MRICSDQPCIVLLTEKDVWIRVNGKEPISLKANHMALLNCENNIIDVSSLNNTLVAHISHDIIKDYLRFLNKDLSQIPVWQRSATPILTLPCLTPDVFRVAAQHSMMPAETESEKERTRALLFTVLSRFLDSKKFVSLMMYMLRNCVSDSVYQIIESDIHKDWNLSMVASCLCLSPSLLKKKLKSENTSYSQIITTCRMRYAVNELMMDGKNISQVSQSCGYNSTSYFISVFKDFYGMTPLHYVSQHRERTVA
UniProt P31469: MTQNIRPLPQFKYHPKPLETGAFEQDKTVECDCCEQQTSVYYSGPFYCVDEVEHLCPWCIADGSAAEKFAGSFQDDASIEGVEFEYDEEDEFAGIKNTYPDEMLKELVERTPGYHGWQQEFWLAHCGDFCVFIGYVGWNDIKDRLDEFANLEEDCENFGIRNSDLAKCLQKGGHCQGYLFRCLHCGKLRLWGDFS
UniProt P30871: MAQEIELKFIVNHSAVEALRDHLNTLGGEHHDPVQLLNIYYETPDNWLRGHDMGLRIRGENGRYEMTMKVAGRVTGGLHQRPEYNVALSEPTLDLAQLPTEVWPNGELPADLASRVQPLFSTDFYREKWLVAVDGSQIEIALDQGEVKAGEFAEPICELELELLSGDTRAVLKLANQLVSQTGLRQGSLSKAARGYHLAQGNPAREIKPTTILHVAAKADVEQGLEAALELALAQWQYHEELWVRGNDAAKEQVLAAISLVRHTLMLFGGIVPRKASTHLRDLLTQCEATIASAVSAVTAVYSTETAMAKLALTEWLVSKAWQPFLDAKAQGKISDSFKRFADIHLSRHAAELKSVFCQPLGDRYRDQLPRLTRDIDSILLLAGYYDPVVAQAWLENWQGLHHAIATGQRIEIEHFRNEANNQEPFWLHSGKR
UniProt P31460: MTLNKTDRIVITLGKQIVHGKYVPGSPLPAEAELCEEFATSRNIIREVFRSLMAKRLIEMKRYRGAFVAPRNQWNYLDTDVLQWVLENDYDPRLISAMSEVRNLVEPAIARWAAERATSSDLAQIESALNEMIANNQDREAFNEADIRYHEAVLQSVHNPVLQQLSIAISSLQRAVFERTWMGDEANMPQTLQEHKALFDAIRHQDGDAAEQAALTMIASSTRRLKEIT
UniProt P25748: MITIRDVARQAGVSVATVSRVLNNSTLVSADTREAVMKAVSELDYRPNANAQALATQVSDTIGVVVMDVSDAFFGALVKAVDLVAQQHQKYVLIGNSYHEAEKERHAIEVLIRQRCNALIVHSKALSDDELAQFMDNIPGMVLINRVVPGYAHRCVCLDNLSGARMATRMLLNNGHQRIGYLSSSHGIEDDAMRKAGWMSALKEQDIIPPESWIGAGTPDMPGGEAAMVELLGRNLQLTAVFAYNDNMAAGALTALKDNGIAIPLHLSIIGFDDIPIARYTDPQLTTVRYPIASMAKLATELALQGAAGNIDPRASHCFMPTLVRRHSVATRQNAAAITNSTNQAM
UniProt P31060: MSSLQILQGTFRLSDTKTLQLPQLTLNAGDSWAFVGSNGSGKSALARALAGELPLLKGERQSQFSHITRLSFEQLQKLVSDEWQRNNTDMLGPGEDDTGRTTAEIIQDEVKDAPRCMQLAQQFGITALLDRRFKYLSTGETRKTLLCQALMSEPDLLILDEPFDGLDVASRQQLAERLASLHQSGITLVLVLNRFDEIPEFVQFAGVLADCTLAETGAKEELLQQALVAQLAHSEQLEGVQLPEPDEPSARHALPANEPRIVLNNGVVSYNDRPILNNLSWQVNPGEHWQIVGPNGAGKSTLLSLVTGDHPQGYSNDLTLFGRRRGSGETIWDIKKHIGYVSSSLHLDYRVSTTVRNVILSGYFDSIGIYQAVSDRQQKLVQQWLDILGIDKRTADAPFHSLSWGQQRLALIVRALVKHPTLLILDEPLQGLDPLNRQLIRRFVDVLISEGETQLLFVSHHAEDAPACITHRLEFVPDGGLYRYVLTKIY
UniProt P26459: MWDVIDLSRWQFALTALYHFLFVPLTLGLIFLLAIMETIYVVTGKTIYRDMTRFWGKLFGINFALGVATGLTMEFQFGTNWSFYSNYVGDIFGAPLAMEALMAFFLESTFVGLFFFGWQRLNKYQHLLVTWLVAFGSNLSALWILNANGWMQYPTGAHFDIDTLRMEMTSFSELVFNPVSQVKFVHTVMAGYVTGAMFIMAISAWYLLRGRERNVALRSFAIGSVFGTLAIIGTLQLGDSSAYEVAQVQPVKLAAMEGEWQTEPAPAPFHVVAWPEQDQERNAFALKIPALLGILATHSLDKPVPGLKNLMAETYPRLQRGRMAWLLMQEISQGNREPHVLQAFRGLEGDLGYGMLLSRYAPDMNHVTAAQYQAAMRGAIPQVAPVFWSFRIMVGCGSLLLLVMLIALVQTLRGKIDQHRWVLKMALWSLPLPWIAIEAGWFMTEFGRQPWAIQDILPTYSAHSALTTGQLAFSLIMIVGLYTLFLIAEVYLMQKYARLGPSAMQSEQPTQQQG
UniProt P30140: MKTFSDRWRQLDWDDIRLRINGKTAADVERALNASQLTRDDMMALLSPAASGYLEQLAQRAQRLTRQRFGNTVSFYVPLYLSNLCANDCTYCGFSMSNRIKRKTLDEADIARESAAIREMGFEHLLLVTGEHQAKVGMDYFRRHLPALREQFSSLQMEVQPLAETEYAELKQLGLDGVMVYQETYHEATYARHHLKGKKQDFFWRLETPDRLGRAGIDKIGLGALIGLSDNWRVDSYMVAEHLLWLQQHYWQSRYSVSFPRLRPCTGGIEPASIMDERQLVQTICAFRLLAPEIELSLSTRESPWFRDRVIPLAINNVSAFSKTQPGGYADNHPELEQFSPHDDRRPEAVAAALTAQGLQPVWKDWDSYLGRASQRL
UniProt P30847: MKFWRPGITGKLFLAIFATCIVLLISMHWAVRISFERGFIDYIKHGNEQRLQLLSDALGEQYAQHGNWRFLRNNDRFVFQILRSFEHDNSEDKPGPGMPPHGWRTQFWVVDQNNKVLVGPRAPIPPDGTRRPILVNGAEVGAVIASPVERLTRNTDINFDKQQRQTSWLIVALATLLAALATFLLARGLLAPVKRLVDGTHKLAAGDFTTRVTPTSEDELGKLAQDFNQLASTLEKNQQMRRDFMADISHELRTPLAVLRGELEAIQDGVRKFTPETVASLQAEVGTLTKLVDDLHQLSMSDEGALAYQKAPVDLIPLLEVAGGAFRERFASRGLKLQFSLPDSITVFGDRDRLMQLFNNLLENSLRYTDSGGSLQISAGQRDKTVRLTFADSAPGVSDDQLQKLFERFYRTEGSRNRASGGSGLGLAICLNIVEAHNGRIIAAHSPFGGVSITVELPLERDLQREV
UniProt P30864: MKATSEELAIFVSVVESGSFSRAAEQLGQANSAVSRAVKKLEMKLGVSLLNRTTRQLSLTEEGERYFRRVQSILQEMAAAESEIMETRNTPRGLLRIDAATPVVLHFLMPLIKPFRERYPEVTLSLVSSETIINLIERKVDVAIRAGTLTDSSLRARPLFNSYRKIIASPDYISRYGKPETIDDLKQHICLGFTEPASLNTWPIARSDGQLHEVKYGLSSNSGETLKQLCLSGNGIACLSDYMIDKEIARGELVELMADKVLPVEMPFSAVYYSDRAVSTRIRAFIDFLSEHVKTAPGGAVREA
UniProt P30138: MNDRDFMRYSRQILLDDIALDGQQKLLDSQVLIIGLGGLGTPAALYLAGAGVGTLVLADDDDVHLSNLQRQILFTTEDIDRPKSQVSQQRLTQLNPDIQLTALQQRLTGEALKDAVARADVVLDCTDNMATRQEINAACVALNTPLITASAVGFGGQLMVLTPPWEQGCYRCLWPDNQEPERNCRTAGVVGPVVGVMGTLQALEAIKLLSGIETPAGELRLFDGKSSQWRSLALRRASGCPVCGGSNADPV
UniProt P33594: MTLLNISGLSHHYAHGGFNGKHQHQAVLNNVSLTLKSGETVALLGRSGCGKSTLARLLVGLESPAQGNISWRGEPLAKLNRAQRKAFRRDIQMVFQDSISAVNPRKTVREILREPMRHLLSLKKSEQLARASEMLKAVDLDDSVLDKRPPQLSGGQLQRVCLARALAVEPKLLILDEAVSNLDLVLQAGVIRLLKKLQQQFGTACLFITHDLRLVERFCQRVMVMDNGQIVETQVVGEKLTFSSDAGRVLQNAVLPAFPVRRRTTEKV
UniProt P24230: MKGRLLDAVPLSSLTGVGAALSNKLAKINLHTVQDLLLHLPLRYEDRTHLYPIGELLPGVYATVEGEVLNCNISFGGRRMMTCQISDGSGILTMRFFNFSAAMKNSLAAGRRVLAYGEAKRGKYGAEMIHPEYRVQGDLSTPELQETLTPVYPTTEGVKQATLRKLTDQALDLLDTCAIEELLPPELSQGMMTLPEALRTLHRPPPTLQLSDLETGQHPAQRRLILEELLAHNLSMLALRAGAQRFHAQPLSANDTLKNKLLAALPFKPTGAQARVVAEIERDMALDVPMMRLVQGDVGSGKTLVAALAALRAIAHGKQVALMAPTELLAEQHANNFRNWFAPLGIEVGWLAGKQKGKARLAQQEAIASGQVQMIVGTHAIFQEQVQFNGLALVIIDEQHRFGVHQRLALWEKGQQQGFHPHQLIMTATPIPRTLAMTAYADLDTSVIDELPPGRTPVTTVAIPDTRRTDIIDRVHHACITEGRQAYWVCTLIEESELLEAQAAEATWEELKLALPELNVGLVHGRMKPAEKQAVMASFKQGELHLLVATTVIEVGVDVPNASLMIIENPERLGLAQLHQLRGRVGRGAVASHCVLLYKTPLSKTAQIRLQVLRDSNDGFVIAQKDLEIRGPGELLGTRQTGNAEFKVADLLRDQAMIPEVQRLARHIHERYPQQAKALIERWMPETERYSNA
UniProt P31660: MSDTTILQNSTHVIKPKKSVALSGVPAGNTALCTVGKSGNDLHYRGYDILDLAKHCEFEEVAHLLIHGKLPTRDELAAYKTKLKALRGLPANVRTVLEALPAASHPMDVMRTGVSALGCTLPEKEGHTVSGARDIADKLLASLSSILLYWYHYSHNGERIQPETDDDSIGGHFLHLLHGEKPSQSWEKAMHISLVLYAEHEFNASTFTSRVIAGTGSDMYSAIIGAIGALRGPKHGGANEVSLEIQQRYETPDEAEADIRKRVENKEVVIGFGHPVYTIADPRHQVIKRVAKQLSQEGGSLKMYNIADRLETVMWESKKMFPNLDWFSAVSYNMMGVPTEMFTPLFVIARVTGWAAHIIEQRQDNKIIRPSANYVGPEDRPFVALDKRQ
UniProt P33358: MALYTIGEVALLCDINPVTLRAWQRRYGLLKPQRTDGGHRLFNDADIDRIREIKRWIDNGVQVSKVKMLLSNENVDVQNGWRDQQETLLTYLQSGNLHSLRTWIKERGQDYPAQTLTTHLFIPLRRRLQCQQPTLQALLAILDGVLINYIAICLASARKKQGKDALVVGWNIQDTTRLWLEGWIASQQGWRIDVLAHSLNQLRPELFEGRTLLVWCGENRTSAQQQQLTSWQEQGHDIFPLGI
UniProt P27126: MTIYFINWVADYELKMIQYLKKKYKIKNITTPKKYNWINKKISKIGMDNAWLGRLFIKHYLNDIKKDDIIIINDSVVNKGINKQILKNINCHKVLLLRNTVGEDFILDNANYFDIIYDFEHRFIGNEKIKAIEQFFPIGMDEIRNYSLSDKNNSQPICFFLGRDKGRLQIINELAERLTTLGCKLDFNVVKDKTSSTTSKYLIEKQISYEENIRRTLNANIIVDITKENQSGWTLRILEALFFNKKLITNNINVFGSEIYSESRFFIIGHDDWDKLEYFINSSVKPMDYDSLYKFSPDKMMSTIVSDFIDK
UniProt P24203: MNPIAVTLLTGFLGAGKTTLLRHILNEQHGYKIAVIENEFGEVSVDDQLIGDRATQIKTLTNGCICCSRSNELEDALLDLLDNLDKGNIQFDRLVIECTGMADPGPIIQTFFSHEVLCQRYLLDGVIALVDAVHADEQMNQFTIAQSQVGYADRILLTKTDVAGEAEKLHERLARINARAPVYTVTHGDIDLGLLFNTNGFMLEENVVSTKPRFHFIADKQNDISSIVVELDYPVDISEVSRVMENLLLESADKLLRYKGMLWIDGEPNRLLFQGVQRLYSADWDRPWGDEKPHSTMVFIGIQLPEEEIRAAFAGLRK

Compound: CC1(C)S[C@@H]2[C@H](NC(=O)[C@H](N)c3ccccc3)C(=O)N2[C@H]1C(=O)O [ampicillin]
Assay: log2 fold change of tryptic peptide abundance, ligand vs vehicle (limited proteolysis) (log2 ratio); higher = more trypsin-susceptible (destabilized)
Details: ligand concentration: 10 uM; sample: E. coli crude lysate

| Target | log2 fold change |
| --- | --- |
| UniProt P25397 (peptide sequence: NAMSIANVER, peptide start residue: 61) | 0.341 |
| UniProt P33025 (peptide sequence: ESTPFLLAR, peptide start residue: 268) | -0.223 |
| UniProt P33234 (peptide sequence: VNGKEPISLK, peptide start residue: 22) | 0.286 |
| UniProt P31469 (peptide sequence: NTYPDEMLK, peptide start residue: 97) | 0.111 |
| UniProt P28634 (peptide sequence: WRVTDAGFEVFALEPR, peptide start residue: 220) | -0.333 |
| UniProt P24193 (peptide sequence: RTLDLPHAEPLPR, peptide start residue: 322) | 0.222 |
| UniProt P30871 (peptide sequence: IRGENGRYEMTMK, peptide start residue: 57) | 0.429 |
| UniProt P31460 (peptide sequence: NLVEPAIAR, peptide start residue: 103) | 0.0765 |
| UniProt P25748 (peptide sequence: MLLNNGHQR, peptide start residue: 170) | 0.243 |
| UniProt P31060 (peptide sequence: RGSGETIWDIK, peptide start residue: 325) | -0.42 |
| UniProt P26459 (peptide sequence: YAPDMNHVTAAQYQAAMR, peptide start residue: 360) | -0.37 |
| UniProt P30140 (peptide sequence: EMGFEHLLLVTGEHQAK, peptide start residue: 119) | -0.202 |
| UniProt P30847 (peptide sequence: LAAGDFTTR, peptide start residue: 203) | 0.305 |
| UniProt P30864 (peptide sequence: KIIASPDYISR, peptide start residue: 165) | -0.52 |
| UniProt P33360 (peptide sequence: TIVLVTHDIDEALR, peptide start residue: 187) | 0.201 |
| UniProt P30138 (peptide sequence: LLSGIETPAGELR, peptide start residue: 208) | 0.169 |
| UniProt P33594 (peptide sequence: AVDLDDSVLDK, peptide start residue: 137) | -0.224 |
| UniProt P29013 (peptide sequence: NAPLLESWQR, peptide start residue: 250) | -0.491 |
| UniProt P33029 (peptide sequence: AQNHLYTVLEK, peptide start residue: 74) | 0.336 |
| UniProt P24230 (peptide sequence: LLAALPFKPTGAQAR, peptide start residue: 261) | -0.179 |
| UniProt P31660 (peptide sequence: KSVALSGVPAGNTALCTVGK, peptide start residue: 18) | 0.244 |
| UniProt P33358 (peptide sequence: LFNDADIDR, peptide start residue: 41) | -0.239 |
| UniProt P27126 (peptide sequence: KDDIIIINDSVVNK, peptide start residue: 66) | 0.423 |
| UniProt P24203 (peptide sequence: ILLTKTDVAGEAEKLHER, peptide start residue: 155) | -0.423 |

Shown as comma-separated lines: entries from further up.
Target,log2 fold change
"UniProt P31060 (peptide sequence: RGSGETIWDIK, peptide start residue: 325)",-0.42
"UniProt P26459 (peptide sequence: YAPDMNHVTAAQYQAAMR, peptide start residue: 360)",-0.37
